# From patent publication US9186296B2, “Containers for compositions comprising meloxicam” (Boehringer Ingelheim Vetmedica GmbH, priority 2009, dated 2015)
# At least one compound was matched to its structure with a doubt left.
# Assay: long-term stability programme according to VICH guideline 3 (storage in bottles of different materials)
# Type: physicochemical
# Settings: storage at 25° C./60% r.h.; PP, HDPE and glass bottles; FIG. 7
# Protocol: The preferred pharmaceutical composition filled into containers made of the different types of packaging has been subject to a long-term stability programme according to the conditions as described in the VICH guideline 3. The conditions used for storage were 25° C./60% r.h. (r.h.=relative humidity), 30° C./70% r.h., and 40° C. /75% r.h.
# The stability studies of a 0.5 mg/ml suspension were carried out with 3 ml and 4 ml of the suspension being filled into 5 ml HDPE bottles. […] This has not been observed before for any of the suspensions (1.5 mg/ml or 0.5 mg/ml) or the different fill volumes. The shelf-life of the 1.5 mg/ml suspension with a 10 ml fill (in a 25 ml bottle) is for example at least 18 months. An acceptable shelf-life for commercial use of the product with a volume size for the treatment of cats for a few days (up to five days) cannot be established by using HDPE as the container material.
# Thus, polypropylene is a suitable material for holding small volumes of oral suspensions comprising meloxicam and sodium benzoate as preservative. The suitability of PP is further shown by comparison with the unsuitable negative reference containers made of PET and PC, see FIGS. 1, 3, and 4.
smiles,measurement,value
Cc1cnc(NC(=O)C2=C(O)c3ccccc3S(=O)(=O)N2C)s1 [meloxicam],meloxicam assay over time,very stable over time
